Experimental data from patent US8329701B2, “Dihydrofuro pyrimidines as AKT protein kinase inhibitors” (Array Biopharma Inc., priority 2006, dated 2012).
Structures can show the parent of a compound that is named as a salt. Some results were stated once for a whole list of compounds, not compound by compound.

Chains of the proteins cited; added tags and fusions are not shown. Lines headed by an entry give the natural chain unless they say otherwise; changes in a name come on top.
UniProt P31749: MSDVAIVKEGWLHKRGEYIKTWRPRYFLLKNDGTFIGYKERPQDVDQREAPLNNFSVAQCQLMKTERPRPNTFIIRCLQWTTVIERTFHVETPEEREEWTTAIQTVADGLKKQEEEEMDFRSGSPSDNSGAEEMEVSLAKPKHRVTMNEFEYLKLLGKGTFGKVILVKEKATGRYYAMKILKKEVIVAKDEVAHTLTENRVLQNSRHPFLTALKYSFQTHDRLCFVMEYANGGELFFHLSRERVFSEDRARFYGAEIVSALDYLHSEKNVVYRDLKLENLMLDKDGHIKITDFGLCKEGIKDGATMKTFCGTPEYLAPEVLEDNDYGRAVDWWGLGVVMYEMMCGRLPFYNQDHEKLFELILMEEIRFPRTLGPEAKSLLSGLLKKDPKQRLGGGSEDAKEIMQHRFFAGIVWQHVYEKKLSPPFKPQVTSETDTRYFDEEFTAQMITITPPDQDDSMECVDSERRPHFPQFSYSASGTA

Target: full-length human recombinant active AKT-1 (Homo sapiens, UniProt P31749)
Experiment: AKT-1 Kinase Assay (IMAP fluorescence polarization)
Assay type: biochemical
Conditions: phosphorylation of fluorescently-labeled peptide (Crosstide), fluorescent polarization, IMAP kit

C[C@@H]1OCc2ncnc(N3CCN(C(=O)C4(c5ccc(Cl)cc5)CCNC4)CC3)c21 (stereo partly drawn) [Example 24, (3-(4-chlorophenyl)pyrrolidin-3-yl)(4-((S)-5-methyl-5,7-dihydrofuro[3,4-d]pyrimidin-4-yl)piperazin-1-yl)methanone]
IC50: < 10 µM

Cc1ccc(C(CNC(C)C)C(=O)N2CCN(c3ncnc4c3[C@H](C)OC4)CC2)cc1 (stereo partly drawn) [Example 13, 3-(isopropylamino)-1-(4-((S)-5-methyl-5,7-dihydrofuro[3,4-d]pyrimidin-4-yl)piperazin-1-yl)-2-p-tolylpropan-1-one]
IC50: < 10 µM

C[C@@H]1OCc2ncnc(N3CCN(C(=O)[C@H](N)Cc4ccc(Cl)cc4)CC3)c21 [Example 17, (R)-2-amino-3-(4-chlorophenyl)-1-(4-((S)-5-methyl-5,7-dihydrofuro[3,4-d]pyrimidin-4-yl)piperazin-1-yl)propan-1-one]
IC50: < 10 µM

COc1ccc(C(CNC(C)C)C(=O)N2CCN(c3ncnc4c3[C@H](C)OC4)CC2)cc1 (stereo partly drawn) [Example 12, 3-(isopropylamino)-2-(4-methoxyphenyl)-1-(4-((S)-5-methyl-5,7-dihydrofuro[3,4-d]pyrimidin-4-yl)piperazin-1-yl)propan-1-one]
IC50: < 10 µM

CC(C)NCC(O)(C(=O)N1CCN(c2ncnc3c2[C@H](C)OC3)CC1)c1ccc(Cl)cc1 (stereo partly drawn) [Example 14, 2-(4-chlorophenyl)-2-hydroxy-3-(isopropylamino)-1-(4-((S)-5-methyl-5,7-dihydrofuro[3,4-d]pyrimidin-4-yl)piperazin-1-yl)propan-1-one]
IC50: < 10 µM

CC(C)NC[C@@H](C(=O)N1CCN(c2ncnc3c2[C@H](C)OC3)CC1)c1ccc(Cl)cc1 [Example 21, (S)-2-(4-chlorophenyl)-3-(isopropylamino)-1-(4-((S)-5-methyl-5,7-dihydrofuro[3,4-d]pyrimidin-4-yl)piperazin-1-yl)propan-1-one]
IC50: < 10 µM

CC1OCc2ncnc(N3CCN(C(=O)[C@H](N)Cc4ccc(Cl)cc4)C[C@@H]3C)c21 (stereo partly drawn) [Example 28, (2R)-2-amino-3-(4-chlorophenyl)-1-((3S)-3-methyl-4-(5-methyl-5,7-dihydrofuro[3,4-d]pyrimidin-4-yl)piperazin-1-yl)propan-1-one]
IC50: < 10 µM

CC(C)NCC(C(=O)N1CCN(c2ncnc3c2[C@H](C)OC3)CC1)c1ccc(Cl)cc1 (stereo partly drawn) [Example 19, 2-(4-chlorophenyl)-3-(isopropylamino)-1-(4-((S)-5-methyl-5,7-dihydrofuro[3,4-d]pyrimidin-4-yl)piperazin-1-yl)propan-1-one]
IC50: < 10 µM

CC(C)NCC(C(=O)N1CCN(c2ncnc3c2[C@@H](C)OC3)CC1)c1ccc(Cl)cc1 (stereo partly drawn) [Example 6, 2-(4-chlorophenyl)-3-(isopropylamino)-1-(4-((R)-5-methyl-5,7-dihydrofuro[3,4-d]pyrimidin-4-yl)piperazin-1-yl)propan-1-one]
IC50: < 10 µM

CC(C)NCC(C(=O)N1CCN(c2ncnc3c2[C@H](C)OC3)CC1)c1ccc(F)c(F)c1 (stereo partly drawn) [Example 9, 2-(3,4-difluorophenyl)-3-(isopropylamino)-1-(4-((S)-5-methyl-5,7-dihydrofuro[3,4-d]pyrimidin-4-yl)piperazin-1-yl)propan-1-one]
IC50: < 10 µM

CC1OCc2ncnc(N3CCN(C(=O)[C@H](N)Cc4ccc(Cl)cc4)CC3)c21 (stereo partly drawn) [Example 1, (2R)-2-amino-3-(4-chlorophenyl)-1-(4-(5-methyl-5,7-dihydrofuro[3,4-d]pyrimidin-4-yl)piperazine-1-yl)propan-1-one dihydrochloride]
IC50: < 10 µM

CC(C)NC[C@H](C(=O)N1CCN(c2ncnc3c2[C@H](C)OC3)CC1)c1ccc(Cl)cc1 [Example 20, (R)-2-(4-chlorophenyl)-3-(isopropylamino)-1-(4-((S)-5-methyl-5,7-dihydrofuro[3,4-d]pyrimidin-4-yl)piperazin-1-yl)propan-1-one]
IC50: < 10 µM

C[C@H]1OCc2ncnc(N3CCN(C(=O)[C@H](CC(C)(C)N)c4ccc(Cl)c(F)c4)CC3)c21 [Example 18, (R)-4-amino-2-(4-chloro-3-fluorophenyl)-4-methyl-1-(4-((R)-5-methyl-5,7-dihydrofuro[3,4-d]pyrimidin-4-yl)piperazin-1-yl)pentan-1-one]
IC50: < 10 µM

CC(C)NCC(C(=O)N1CCN(c2ncnc3c2C(C)OC3)[C@@H](C)C1)c1ccc(Cl)cc1 (stereo partly drawn) [Example 7, 2-(4-chlorophenyl)-3-(isopropylamino)-1-((3S)-3-methyl-4-(5-methyl-5,7-dihydrofuro[3,4-d]pyrimidin-4-yl)piperazin-1-yl)propan-1-one]
IC50: < 10 µM

CC(C)NC[C@@H](C(=O)N1CCN(c2ncnc3c2[C@@H](C)OC3)CC1)c1ccc(Cl)cc1 [Example 22, (S)-2-(4-chlorophenyl)-3-(isopropylamino)-1-(4-((R)-5-methyl-5,7-dihydrofuro[3,4-d]pyrimidin-4-yl)piperazin-1-yl)propan-1-one]
IC50: < 10 µM

C[C@@H]1OCc2ncnc(N3CCN(C(=O)[C@H](CC(C)(C)N)c4ccc(Cl)c(F)c4)CC3)c21 [Example 15, (R)-4-amino-2-(4-chloro-3-fluorophenyl)-4-methyl-1-(4-((S)-5-methyl-5,7-dihydrofuro[3,4-d]pyrimidin-4-yl)piperazin-1-yl)pentan-1-one]
IC50: < 10 µM

CC1OCc2ncnc(N3CCN(C(=O)C(CC(C)(C)N)c4ccc(Cl)c(F)c4)CC3)c21 (centres unmarked) [Example 2, 4-amino-2-(4-chloro-3-fluorophenyl)-4-methyl-1-(4-(5-methyl-5,7-dihydrofuro[3,4-d]pyrimidin-4-yl)piperazin-1-yl)pentan-1-one dihydrochloride]
IC50: < 10 µM

CC(C)NCC(C(=O)N1CCN(c2ncnc3c2C(C)OC3)CC1)c1ccc(Cl)cc1 (centres unmarked) [Example 27, 2-(4-chlorophenyl)-3-(isopropylamino)-1-(4-(5-methyl-5,7-dihydrofuro[3,4-d]pyrimidin-4-yl)piperazin-1-yl)propan-1-one]
IC50: < 10 µM

C[C@@H]1OCc2ncnc(N3CCN(C(=O)[C@H](CN)c4ccc(Cl)cc4)CC3)c21 [Example 29, (S)-3-amino-2-(4-chlorophenyl)-1-(4-((S)-5-methyl-5,7-dihydrofuro[3,4-d]pyrimidin-4-yl)piperazin-1-yl)propan-1-one]
IC50: < 10 µM

CC(C)NCC(C(=O)N1CCN(c2ncnc3c2[C@H](C)OC3)CC1)c1ccc(F)cc1 (stereo partly drawn) [Example 10, 2-(4-fluorophenyl)-3-(isopropylamino)-1-(4-((S)-5-methyl-5,7-dihydrofuro[3,4-d]pyrimidin-4-yl)piperazin-1-yl)propan-1-one]
IC50: < 10 µM

CC(C)NCC(C(=O)N1CCN(c2ncnc3c2[C@H](C)OC3)CC1)c1ccc(Cl)cc1Cl (stereo partly drawn) [Example 8, 2-(2,4-dichlorophenyl)-3-(isopropylamino)-1-(4-((S)-5-methyl-5,7-dihydrofuro[3,4-d]pyrimidin-4-yl)piperazin-1-yl)propan-1-one]
IC50: < 10 µM

CC1OCc2ncnc(N3CCN(C(=O)[C@@H](N)Cc4ccc(Cl)cc4)CC3)c21 (stereo partly drawn) [Example 25, (2S)-2-amino-3-(4-chlorophenyl)-1-(4-(5-methyl-5,7-dihydrofuro[3,4-d]pyrimidin-4-yl)piperazin-1-yl)propan-1-one]
IC50: < 10 µM

CC(C)NC[C@H](C(=O)N1CCN(c2ncnc3c2[C@@H](C)OC3)CC1)c1ccc(Cl)cc1 [Example 23, (R)-2-(4-chlorophenyl)-3-(isopropylamino)-1-(4-((R)-5-methyl-5,7-dihydrofuro[3,4-d]pyrimidin-4-yl)piperazin-1-yl)propan-1-one]
IC50: < 10 µM

C[C@H]1OCc2ncnc(N3CCN(C(=O)[C@H](N)Cc4ccc(Cl)cc4)CC3)c21 [Example 5, (R)-2-amino-3-(4-chlorophenyl)-1-(4-((R)-5-methyl-5,7-dihydrofuro[3,4-d]pyrimidin-4-yl)piperazin-1yl)propan-1-one]
IC50: < 10 µM

CC1OCc2ncnc(N3CCN(C(=O)C(CC(C)(C)N)c4ccc(Cl)c(F)c4)C[C@@H]3C)c21 (stereo partly drawn) [Example 16, 4-amino-2-(4-chloro-3-fluorophenyl)-4-methyl-1-((3S)-3-methyl-4-(5-methyl-5,7-dihydrofuro[3,4-d]pyrimidin-4-yl)piperazin-1-yl)pentan-1-one]
IC50: < 10 µM

CC(C)NCC(C(=O)N1CCN(c2ncnc3c2[C@H](C)OC3)CC1)c1ccc(Cl)c(F)c1 (stereo partly drawn) [Example 11, 2-(4-chloro-3-fluorophenyl)-3-(isopropylamino)-1-(4-((S)-5-methyl-5,7-dihydrofuro[3,4-d]pyrimidin-4-yl)piperazin-1-yl)propan-1-one]
IC50: < 10 µM
